Data taken from PubChem BioAssay AID2685 (National Center for Advancing Translational Sciences (NCATS), 2010).
About 2,100 (0.66%) of roughly 320,000 compounds were called active. The shares of active, inactive and inconclusive entries below differ from those in the screen. Calls follow the shape of the dose curve; as a rule, active = well fitted inhibition curve with a large enough effect in the signal ratio, with a control signal flat (not every such curve was filed as active); inconclusive = small, poorly fitted or top-dose-only effect, or effect the other way, or a change in a side signal; inactive = flat fitted curve, though single readings scatter; the % refers to the signal ratio. Potencies of inconclusive entries are doubtful fits and often do not repeat.

experiment: qHTS Assay for Lipid Storage Modulators in Drosophila S3 Cells; settings: BODIPY lipid droplet fluorescence, 18-24 h, cells fed with added oleic acid; lipid storage change, negative = inhibition: at 46.1 µM (top of the series) unless noted
Summary of the method: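 Laser-scanning cytometry quantifies lipid droplet accumulation (500–530 nm total intensity; droplet/cell object ratio) in oleic acid-fed (400 uM added) Drosophila S3 cells treated with a concentration series. 20 uM Triacsin C defined 100% inhibition.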
% is scaled to controls: 0 for no effect and ±100 for the full control effect; potency is read from the fitted curve at half-maximal effect.

| Compound | Potency | lipid storage change, negative = inhibition | outcome |
| --- | --- | --- | --- |
| Cc1cccc(NC(=O)COc2ccccc2C)n1 | inconclusive: 29.1 µM [activator, single point] |  |  |
| COc1ccc(CCN2CC(C(=O)N(C)CC(=O)Nc3cccc(F)c3)CC2=O)cc1OC (stereo not given) |  | inconclusive: 15.8% |  |
| O=C1OCCC1Sc1nc2cc(Cl)ccc2s1 (stereo not given) |  | inconclusive: 82.3% |  |
| O=C(Cc1ccccc1)N1CCC(c2nc3ccccc3[nH]2)CC1 | inconclusive: 0.82 µM [falling, full curve, poor fit] |  |  |
| COC(=O)CSc1nc2c(cnn2-c2ccc(Cl)cc2)c(=O)[nH]1 |  | inconclusive: 58.2% |  |
| COC(=O)C1=C(NC(=O)c2cccc(OC)c2)CCS1 |  | inconclusive: 8.1% |  |
| COc1ccc(NC(=O)COC(=O)[C@@H]2CCCN2C(=O)c2cccs2)cc1 | active: 29.1 µM |  |  |
| CN(CC(=O)Nc1sccc1C#N)S(=O)(=O)c1ccc(F)cc1 |  | inconclusive |  |
| COc1ccc(C(=O)Nc2cc3c(cc2C(=O)O)OCCCO3)c(OC)c1 |  | inconclusive: 479% |  |
| Clc1ccc(Oc2nc(Oc3ccc(Cl)cc3)nc(N3CCOCC3)n2)cc1 | inconclusive: 6.51 µM [falling, full curve] |  |  |
| C=CCn1c(SC(C)C(=O)Nc2ccc(Cl)cn2)nnc1C1CC1 (stereo not given) |  | inconclusive |  |
| CC(C)C(c1nnnn1C1CCCC1)N1CCCCC1 (stereo not given) |  |  | inactive [at 46.1 µM] |
| CC(C)C(=O)Nc1ccc2c(c1)Cc1cc(NC(=O)C(C)C)ccc1-2 | inconclusive: 32.6 µM [activator, single point] |  |  |
| COc1ccc(Oc2coc3cc(O)ccc3c2=O)cc1 |  | inconclusive: 50.2% |  |
| Cc1ccc(S(=O)(=O)N(CC(=O)Nc2cccnc2)c2ccc(Br)cc2)cc1 |  | inconclusive: -64.3% |  |
| COc1ccc(/C=C/C(=O)OCC(=O)Nc2ccc(N3CCOCC3)cc2)cc1 |  | inconclusive: 24.6% |  |
| CS(=O)(=O)c1ccccc1C(=O)N(CCc1ccccc1)Cc1ccccc1 |  | inactive: -1.63% |  |
| O=S(=O)(Nc1cccc(-n2cnnn2)c1)c1ccccc1F |  | inconclusive: 146% |  |
| COc1ccc(/C=C(\NC(=O)c2ccc(OCC(C)C)cc2)C(=O)OCc2ccco2)cc1 |  | inconclusive: -28.5% |  |
| NC(=O)c1ccc(NC(=O)Cc2ccc(S(=O)(=O)N3CCCCC3)cc2)cc1 | inconclusive: 16.4 µM [activator, partial curve] |  |  |
| O=c1cc2c(=O)oc3cc(O)c(O)oc3c2c(O)c1O |  | inconclusive: -15.2% |  |
| CC1CN(S(=O)(=O)c2ccccc2)CC(C)O1 (stereo not given) | inconclusive: 2.06 µM [falling, full curve] |  |  |
| CC(=O)c1cc(-c2ccccc2)n(CC(=O)N2CCCC2)c1C |  | inconclusive: -13.7% |  |
| Cc1ccc(CNC(=O)[C@H](C)NC(=O)C2CCN(C(=O)[C@@H]3CCCN3C(=O)OC(C)(C)C)CC2)cc1 | inconclusive: 29.1 µM [falling, single point] |  |  |
| CCCCC(=O)Nc1ncc(Br)s1 |  | inconclusive: -7.08% |  |
| Cc1ccc(C(=O)OCC(=O)Nc2ccc(F)c(Cl)c2)o1 |  | inconclusive: 78.8% |  |
| CC1CN(C(=O)c2ccn(C)n2)CC(C)O1 (stereo not given) |  | inconclusive: -16.6% |  |

A different layout for some results above.
Compound	Potency	lipid storage change, negative = inhibition	outcome
COc1ccc(NC(=O)COC(=O)[C@@H]2CCCN2C(=O)c2cccs2)cc1	active: 29.1 µM		
CN(CC(=O)Nc1sccc1C#N)S(=O)(=O)c1ccc(F)cc1		inconclusive	

Next part.

| Compound | Potency | lipid storage change, negative = inhibition | outcome |
| --- | --- | --- | --- |
| CC(C)CC1C2C(=O)N(c3ccccc3)C(=O)C2ON1c1ccccc1 (stereo not given) |  | inconclusive: -16.4% |  |
| CCOC(=O)c1nn(-c2ccccc2C)c(=O)c2c(N)scc12 |  | inconclusive: 46.7% |  |
| O=C(NC1CCCC1)C1CCN(C(=O)c2ccccc2Cl)CC1 |  | inconclusive: 64.6% |  |
| CC(C)(C)NC(=O)C(c1ccc(F)cc1)N(Cc1ccco1)C(=O)c1csnn1 (stereo not given) |  | inactive: 13.7% |  |
| COc1ccc(CCNS(=O)(=O)c2cn(C)c(=O)n(C)c2=O)cc1OC | inconclusive: 3.66 µM [falling, full curve] |  |  |
| O=[N+]([O-])c1ccc2c(c1)ncn2-c1ccccc1 |  | inconclusive: 5.98% |  |
| Brc1ccc(OCc2cn3ccccc3n2)cc1 |  | inconclusive: -43.6% [cytotoxic] [at 0.00295 µM] |  |
| COc1ccc2oc(C(=O)Nc3ccc(N4CCOCC4)cc3)c(C)c2c1 |  | inconclusive: 27.3% |  |
| Cc1ccc(C(=O)N2CCN(c3ncccn3)CC2)cc1S(=O)(=O)N1CCCCC1 | inconclusive: 18.4 µM [falling, single point] |  |  |
| O=C(NC(=S)Nc1cccc(NC(=O)c2ccc(Cl)cc2Cl)c1)c1cccs1 | inconclusive: 10.3 µM [activator, partial curve] |  |  |
| COc1ccc(CNCC(O)COCc2cccs2)cc1 (stereo not given) | inconclusive: 3.66 µM [falling, full curve] |  |  |
| CCOc1ccc(CCNC(=O)C2CCCN(S(C)(=O)=O)C2)cc1OCC (stereo not given) |  | inconclusive: 26% |  |
| O=C(CCNC(=O)c1ccc([N+](=O)[O-])cc1)Nc1cccc(S(=O)(=O)N2CCOCC2)c1 | inconclusive: 29.1 µM [activator, single point] |  |  |
| COc1ccc(NC(=O)NC2CCN(C(C)C)CC2)c(OC)c1 |  | inconclusive: 35.6% |  |
| CCN1CCN(C(=S)Nc2ccsc2C(=O)OC)CC1 |  | inconclusive: -22% |  |
| Oc1ccc(/C=N/N2CCN(Cc3ccccc3)CC2)cc1 | inconclusive: 29.1 µM [activator, single point] |  |  |
| COc1cc(OC)c(OC)cc1CNC(=O)c1cc(S(=O)(=O)N2CCOCC2)ccc1F |  | inconclusive: 9.32% |  |
| COC(=O)c1cc(C(=O)Nc2ccc(S(N)(=O)=O)cc2)cc([N+](=O)[O-])c1 |  | inconclusive: 5.37% |  |
| CC(NC(=O)c1ccc2c(c1)OCO2)C(c1cccs1)N1CCN(c2ccccc2)CC1 (stereo not given) |  | inconclusive: 20.9% |  |
| Cc1ccc(CNC(=O)c2nnc(CS(=O)(=O)c3ccccc3)o2)cc1 |  | inconclusive: -24.5% |  |
| CCOC(=O)C1CCN(C(=O)Nc2c(-c3ccccc3)noc2C)CC1 |  | inconclusive: -39.4% |  |
| O=C(/C=C1\SC(=O)NC1=O)Nc1ccc(F)cc1 |  | inconclusive: -10.2% |  |
| CCN(CC)C(=O)COc1ccc(S(=O)(=O)N2CCOCC2)cc1 | inconclusive: 29.1 µM [rising, single point] |  |  |
| Cc1oc(-c2ccccc2)nc1CC(=O)O | inconclusive: 0.146 µM [falling, full curve] |  |  |
| CC(=O)N1CCN(C(=O)c2cc3ccccc3o2)CC1 | inconclusive: 29.1 µM [activator, partial curve] |  |  |
| CCCCC1CCC(C(=O)N(CCCC)c2c(N)n(CCCC)c(=O)[nH]c2=O)CC1 (stereo not given) | inconclusive: 0.731 µM [falling, single point] |  |  |
| COCCn1c(C(C)C)nc2sc3ccccc3c(=O)c2c1=O |  | inconclusive: 33.3% |  |

| Compound | Potency | lipid storage change, negative = inhibition | outcome |
| --- | --- | --- | --- |
| O=C(NC(O)C(=O)c1ccccc1)c1ccccn1 (stereo not given) |  | inconclusive: 0.799% |  |
| Cc1cc(C)nc(SCc2c(F)cccc2Cl)n1 | inconclusive: 0.231 µM [activator, full curve, poor fit] |  |  |
| COc1ccc(/C=C/C(=O)N2CCCc3ccccc32)c(OC)c1 |  | inconclusive: -84.3% |  |
| COc1cccc(-c2cc(C(=O)NCCCn3ccnc3)c3ccccc3n2)c1 | inconclusive: 25.9 µM [activator, single point] |  |  |
| CC1Nc2ncnc(N3CCc4ccccc4C3)c2N(Cc2ccc(Br)cc2)C1=O (stereo not given) |  | inconclusive: 18.1% |  |
| CCO[C@H]1OC(C(=O)Nc2ccccc2)=C[C@@H](c2ccc(Br)cc2)[C@@H]1CCCO |  | inconclusive: -12.4% |  |
| Cc1ccc(/C=C2\SC(=S)N(c3cccnc3)C2=O)cc1 |  | inconclusive: 46% |  |
| Nc1nc(-c2ccco2)cs1 |  | inconclusive: 1.24% |  |
| Cc1cccc(NC(=O)CC2SC(=O)N(c3ccccc3)C2=O)c1 (stereo not given) | inconclusive: 29.1 µM [falling, single point] |  |  |
| CC(=O)c1ccc(N2CCN(S(=O)(=O)c3ccc4c(c3)NC(=O)CO4)CC2)cc1 |  | inconclusive: -139% |  |
| O=C(NCc1ccccc1)C1CCN(S(=O)(=O)c2ccc(Cl)cc2)CC1 |  | inconclusive: 4.02% |  |
| CCc1ccc(OCC(=O)c2c(O)c3ccccc3oc2=O)cc1 |  | inconclusive: 20.1% |  |
| O=C(COC(=O)c1ccccc1F)NC(=O)NC1CCCC1 |  | inconclusive: -1.54% |  |
| O=C(Cc1ccc(S(=O)(=O)N2CCCC2)s1)N1CCN(c2ccc(F)cc2)CC1 |  | inconclusive: 8.66% |  |
| CCOC(=O)N1CCC(N2C(=O)c3ccccc3C2Nc2ccc3c(c2)OCCO3)CC1 (stereo not given) |  | inconclusive: -0.519% |  |
| COc1cccc(-c2cc(C(=O)NCc3ccco3)c3ccccc3n2)c1 |  | inconclusive: -29.9% |  |
| COc1cc(NC(=O)CSc2nnc(C)s2)cc(OC)c1OC |  | inconclusive: 22.6% |  |
| COc1ccc(NC(=O)c2c(C(F)(F)F)nn(C)c2Cl)cc1 |  | inconclusive: -8.23% |  |
| CCN(Cc1ccccc1)S(=O)(=O)c1cc(C(=O)O)ccc1OC | inconclusive: 4.11 µM [falling, single point] |  |  |
| COc1cc(NC(=O)COc2ccccc2Cl)ccc1NC(=O)c1cccs1 | active: 4.61 µM |  |  |
| O=C(COC(=O)c1ccccc1NCCO)NCc1cccs1 |  | inconclusive |  |
| CCOc1ncccc1C(=O)OCc1nnc(-c2ccccc2)o1 |  | inconclusive: 20.5% |  |
| COc1ccc(N(CC(=O)NCCC2=CCCCC2)S(=O)(=O)c2ccccc2F)cc1 | inconclusive: 5.8 µM [falling, partial curve] |  |  |
| COc1ccc(NS(=O)(=O)c2ccc3oc(SC(C)C(N)=O)nc3c2)cc1 (stereo not given) |  | inconclusive: 61.2% |  |
| COc1cc(SC)ccc1C(=O)N1CCc2ccccc21 | inconclusive: 1.03 µM [activator, full curve] |  |  |
| Cc1ccc(Oc2nc3ccccc3n3c(C)nnc23)cc1 |  | inconclusive: 39.5% |  |

An excerpt from above with just lipid storage change, negative = inhibition.
Compound | lipid storage change, negative = inhibition
CC(=O)c1ccc(N2CCN(S(=O)(=O)c3ccc4c(c3)NC(=O)CO4)CC2)cc1 | inconclusive: -139%
COc1ccc(NC(=O)c2c(C(F)(F)F)nn(C)c2Cl)cc1 | inconclusive: -8.23%
O=C(COC(=O)c1ccccc1NCCO)NCc1cccs1 | inconclusive
